# Laboratory results published in PubChem BioAssay AID1508600 (Functional Genomics Laboratory (NCATS/FGL), 2020).
# Hit rate of the full screen: of about 53,000 sequences, about 3,700 (7%) were called active.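 How the source made its calls: active means gene knockdowns whose robust z-score for IL-1 alpha signal is at least 2 or at most -2, so actives lie on both sides; inactive means the rest.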 Some of the results follow.
# Experiment: Components of the Cytosolic LPS Sensing Pathway: Gene Identification via Genome-wide siRNA Screen;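 further: robust z of the log signal after scaling to non-targeting control siRNA wells of the plate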
# Settings: RAW264.7 macrophages, IL-1a HTRF, actives lie on both sides, screened at 100 nM (by protocol), cells primed 5 h with Pam3CSK4 first
# Summary of the method: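 Supernatant IL-1a by HTRF from RAW264.7 cells primed with Pam3CSK4 (5 hours) and transfected with LipidA (24 hour) after 48h siRNA knockdown at 100 nM; cell viability checked with CellTiter-Glo.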
row,Sequence,z-score
1,GCGGUCAACUGGAAACUAATT against Dnaja3,inactive: 0.735
2,GCUGACUUUUUGACAUUGUTT against Rab39,inactive: 0.246
3,GGCAGAAAUGCUGGAGAUUTT against Ncald,inactive: 1.19
4,GGUGAGGAUUGAUAAUGAGTT against Rit2,inactive: -1.46
5,GGUGUUCCCGGUUGAAUAATT against Selenow,inactive: -0.0777
6,GCUCUUCAUUGAAUCUCGGTT against Per1,inactive: 0.136
7,GCAUGUUUAGAACUAGCUCTT against Zfp87,inactive: 0.76
8,GGGACAAUUAGAAAGACAUTT against Mtif2,inactive: 0.982
9,GGCUAUGAGAAUCACAUAATT against Tpo,inactive: -1.49
10,CCAUUCGAGAUGAGAAGAATT against Gcc1,inactive: -0.287
11,CCAUCAAUCCUAAUGCUUATT against Ccin,inactive: -0.376
12,GCUCUAUAUCCAGGAAACUTT against Krtap6-2,inactive: 0.0521
13,CCAGUGAAAAAAAUGCCAUTT against Olfr344,inactive: -0.393
14,CGGUUUACGCCACAAAAGUTT against Rprm,inactive: -0.724
15,GGCAAACAAAUGGUUUGUUTT against Zfp324,inactive: -0.544
16,GGCAUAUGCUGGAGUUAUCTT against Emsy,inactive: -0.309
17,GGAGACUUAAGAUGUUACATT against Tafa5,inactive: -0.0542
18,GCAAUGGAACUAUUAUUCATT against Cd28,active: 2.48
19,GGAAAAACAUCUCUUGCUUTT against Calcb,inactive: 0.361
20,GCUUAUAGAGGAGAACCGUTT against Thrb,inactive: -0.159
21,GGACCAGCUCAGUCAAACATT against Slc39a4,inactive: -0.128
22,GGCGACAAGCAUUAUCAUCTT against Ablim1,inactive: 1.72

row,Sequence,z-score
1,GGCUUCUGAUACAUAUAUCTT against G6pc2,inactive: 0.195
2,GGUGAAUGCACCUUGACCCTT against Spag16,inactive: -0.506
3,CACGAUGUGGAGCAUGUGCTT against Pfdn5,inactive: -0.271
4,UGGAGGAUUACUCUUCUGCTT against Sp140,inactive: -1.61
5,GCAUCAUAAUGGGAUGCUGTT against Qrfp,inactive: -0.313
6,CCAUUGCCAACAACUAGAUTT against Cela3b,inactive: 1.07
7,GGGAAGUCUGGACAAUAUGTT against Ppm1n,inactive: -1.06
8,GGGUAAGAACUUAUUAUUCTT against Ecd,inactive: 0.609
9,GGUUUGCCUGUGCUGAUAUTT against Olfr549,inactive: -0.617
10,GGGUUUUACUAUGUAGCUCTT against Olfr94,inactive: -0.34
11,GCUUGCUGACAUGAUUCCUTT against Ndrg2,inactive: 0.321
12,GCGAAUCUUUCAUAACAGUTT against Lrrc59,inactive: 0.581
13,CGGCCUCAGUUUAGAAUUATT against Plat,inactive: 0.485
14,CGUCAUGCAUUUUUCUAAATT against Trim24,inactive: 0.489
15,GGUCCCUGUGAACAAGCUGTT against Serpinf1,inactive: 1.12
16,GCUUCACGAUUAAAACUAATT against Ltb4r1,inactive: 0
17,GCCUCACAGAUUGAUAAUATT against Akt3,inactive: -1.23
18,GGGAGCAGAUUGAAACAGUTT against Eri2,inactive: -0.546
19,GUAAGGUAUUCAGUGACCUTT against Olfml2a,active: -2.23
20,GGUCAAAUGGUGAAAAAGUTT against Stxbp5l,inactive: 0.152
21,GGAUGCUGUUUACCUAUACTT against Slc51a,inactive: -1.14
22,GGCAGUACCUUACAUUUAATT against Galnt7,inactive: 1.61

row,Sequence,z-score
1,CCGCCCGCUCAACACUAAUTT against Zfp36l3,active: -2.39
2,GGAGAGGAGAGUCUUGGAATT against 3110082I17Rik,inactive: 0.0202
3,GGCGGUCAAGGGAAAAACATT against Tcf7,active: 2.19
4,GGUCUGUAUCCCACUUUUCTT against Dalrd3,active: -2.15
5,CCAAUAUGCUCAGUAUUACTT against Eya4,inactive: -1.36
6,GGAGUUCUUGGAGCAUCAGTT against Zfp526,inactive: -0.23
7,GUAUGCCCACAUUCCAGACTT against Npff,inactive: 0.768
8,GGUUUCGAACUGAUGAAGCTT against Nemf,inactive: 0.284
9,GGUAGCUAUUAUCAACAACTT against Prss21,inactive: 1.38
10,GGUUGACUGAAUGAUGGAATT against Tcl1b3,inactive: -0.724
11,GGGACCAAAGGAAACUUCATT against Eif2s3y,inactive: -0.14
12,GCCUGUGUGAUUGCUUCAGTT against Plac8,inactive: -0.00919
13,CCUCCUGUUUUUUUCUGUGTT against Olfr96,inactive: 0.646
14,GGAACUGAUAACCAGCCAGTT against Nhej1,inactive: -1.28
15,GCCUUUAUUAAGGUUGAAATT against Vcl,inactive: -1.23
16,GGCUUCAUCAAGGUUCAGCTT against Rassf1,inactive: -0.961
17,CCAAGUCACGCACCAAAAATT against Zfp64,inactive: -0.538
18,GAUCUUAUAUGUUGGUGGUTT against Vmn1r29,inactive: -0.31
19,GGGAAGCUUUUCUUAUCAGTT against V1rb6,inactive: -0.447
20,GGAGAAGCCUGGAAGGAAATT against Smim11,inactive: -0.205
21,CCAAACUAUACUGACAGGUTT against Ppp4r2,inactive: 1.18
22,GCGGCGAAAAAGAUGCAUGTT against Hbq1a,inactive: -0.522

row,Sequence,z-score
1,CGCUCCAUUGCUCAGUAUUTT against Vtn,inactive: 1.63
2,GGAAAACAUUAAGAGUACATT against Kdelr3,inactive: 0.127
3,GGAACGUGAUGAAGUGGUCTT against Tex13c3,inactive: 0.0524
4,CGUCCUGUCGCUGAUUAAATT against Tcl1,inactive: 0.323
5,GCCACGUACAACCUCUUCUTT against Grhl3,inactive: 1.43
6,GGCAAUGAGUUCUGGAGUGTT against Capn8,inactive: -0.928
7,GGUGCUGUUGGUAUAUUAUTT against Ssr2,inactive: -1.27
8,GGAAAACACCGCAUAUAAUTT against Ss18l1,inactive: 0.43
9,CCUACUAAACUCAGUCUUUTT against Kap,inactive: 1.08
10,GGACUUACAAUCCACCAGATT against Hpgds,inactive: 0.174
11,GGAUCUGAGUGCUCUACUGTT against Kctd20,active: 2.08
12,GGAGAGGAAGCCUAUGAACTT against Zfp180,inactive: -0.768
13,GUUCAUUCUUGAAGGCCUGTT against Olfr1039,inactive: 0.23
14,CGGUCAAUACAAAUGCACUTT against Fcrl5,inactive: 1.06
15,GGAAGCUGAACUCCUGAAATT against Stmn4,inactive: -1.05
16,GGGAAAGCAGAUCCACAACTT against Adh1,inactive: -0.351
17,GGAAUUUGCCAAAGACCUGTT against Phf13,inactive: -0.763
18,GCCAGUUUAAGUCUCUCCATT against Tmem168,active: -2.37
19,GCUAAGUAAUCAAUUGCUATT against Bhlhe40,inactive: 0.448
20,GGUGGAAUAUUUCAUGGACTT against Csnk2a1,active: 3.43
21,GGACAACUAUUUUGUGAGATT against Kcnj9,inactive: 0.0557
22,GGCAAAUCAUUGAUCAGAATT against Mtrf1,inactive: -0.214

row,Sequence,z-score
1,CCAGUAAGGCUUUUAUAUATT against Hjurp,inactive: -0.0758
2,GCUAUCGAUUGUUACACCGTT against Adrb2,inactive: 0.686
3,GGUUAUCGGUUGUACAUAUTT against Chd3,inactive: 1.03
4,CCUGGUUAUAACUCUAAAGTT against Rad54l,inactive: 0.652
5,GGGAAAAAAAAGCUCUUAATT against Usp43,inactive: 0.441
6,CGAGGUCUGUGCUUAUGAGTT against Tcaf1,inactive: 0.0249
7,GGAGUUCUUGGUCUCUUUGTT against Fam214a,inactive: -0.124
8,GCUUAACUCUAGAGUAUGCTT against Pzp,inactive: 1.11
9,GGUCCUUACCUCCAAUCCATT against Fndc5,inactive: -0.877
10,GCAACUCUGAGGUUGCUAGTT against Pgam1,inactive: -0.12
11,GCUAGUAUUAAAGAAGAGCTT against Myh10,inactive: 0.803
12,GGUUCAACUCUCUUUUUGATT against Atp8b5,inactive: 0.347
13,CCGUGGGAUUUAAGAUAUCTT against Rab34,inactive: -0.931
14,CCUCGCUAUAGAUUUUAACTT against Art2b,inactive: -0.0958
15,GGUUAUACCAGUCAUGACATT against BC005537,inactive: -0.204
16,GGUUACUGCUACCUAUAACTT against Myot,inactive: 0.59
17,GGCUGGAAAAAAUUCAGAATT against Mtmr7,inactive: 1.52
18,GGAGAAAGAAUUCAUUUCCTT against Dync1h1,inactive: 0.387
19,CCUUCUGAAACCUAGCUCATT against Tradd,inactive: -1.4

# 4 entries drawn at random from those above:
row,Sequence,z-score
7,GGAGUUCUUGGUCUCUUUGTT against Fam214a,inactive: -0.124
3,GGUUAUCGGUUGUACAUAUTT against Chd3,inactive: 1.03
1,CCAGUAAGGCUUUUAUAUATT against Hjurp,inactive: -0.0758
6,CGAGGUCUGUGCUUAUGAGTT against Tcaf1,inactive: 0.0249
